PubChem BioAssay AID686937, Drosophila RNAi Screening Center | 2013
Purpose: 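Knock-downs that reduce output of a secreted reporter enzyme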 (primary screen). Cells: Drosophila S2 cells expressing secreted horseradish peroxidase. Knock-down reagent: long dsRNA against Drosophila genes. Time to read-out: about 5.5 days (5 days dsRNA, then 12 h reporter induction). Challenge: reporter expression induced after 5 days of dsRNA, read 12 h later; inducer not stated. Read-out: 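Chemiluminescent measurement of peroxidase in the medium 12 h after reporter induction, following 5 days of dsRNA, given as a z-score per plate; higher means more secretion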. Direction: z-score: higher = more reporter secreted into medium.
The deposit covers about 23,000 reagents; this is an unselected part of those with a known target gene and a result. 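Reduced-secretion tags in replicate 1 do not always agree with the z-scores; no criterion for assigning the tags was given.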 Not given: the amount of reagent.

gene	dsRNA	z-score, replicate 1	z-score, replicate 2	z-score, replicate 3	z-score, replicate 4	phenotype, replicate 1
CG34232	DRSC05332	-0.32	-0.26			
CG34292	DRSC13807	0.3	-0.37			
ninaA (neither inactivation nor afterpotential A)	DRSC00830	0.19	0.4			
veil	DRSC06892	0.18	0.12			
CG5421	DRSC02858	0.01	0.27			
CG4686	DRSC15622	0.35	0.45			
nSMase (neutral sphingomyelinase)	DRSC08237	0.26	0.32			
Nup50 (Nucleoporin 50kD)	DRSC06827	0.13	0.22			
CG44098	DRSC12214	0.38	0.09	-0.38	0.11	
CG44098	DRSC12240	0.16	-0.07			
CG44098	DRSC12327	0.21	0.4			
melt (melted)	DRSC11367	0.5	0.45			
GstD7 (Glutathione S transferase D7)	DRSC16688	0.28	0.18	-0.42	-0.09	
CG12511	DRSC02171	0.49	0.51			
Cmtr1 (Cap methyltransferase 1)	DRSC18400	0.32	-0.01			
CG14650	DRSC12236	0.29	0.45	0.77	0.7	
CG4872	DRSC19921	0.43	0.66			
CG10750	DRSC02105	0.36	0.37			
CG4467	DRSC15585	0.4	0.34			
PH4alphaNE2 (prolyl-4-hydroxylase-alpha NE2)	DRSC16544	0.41	0.52			
lwr (lesswright)	DRSC00828	0.09	0.26			
CG34276	DRSC15811	0.37	0.46			
CG10026	DRSC02010	0.62	0.44			
CG17239	DRSC00492	0.2	0.15			
Vps39 (Vacuolar protein sorting 39)	DRSC16205	0.15	0.27			
CG32354	DRSC10763	0.17	0.14			
CG32354	DRSC10775	0.39	0.51	0.39	0.47	
CG32354	DRSC21919	0.44	0.87			
Sgs5bis	DRSC16263	-0.16	-0.13			
nAChRbeta1 (nicotinic Acetylcholine Receptor beta1)	DRSC08097	-0.43	0.28			
nAChRbeta1 (nicotinic Acetylcholine Receptor beta1)	DRSC08728	0.4	0.54			
Cand1 (Cullin-associated and neddylation-dissociated 1)	DRSC01992	0.34	0.24			
CG43244	DRSC05336	0.55	0.27			
RN-tre (Related to the N terminus of tre oncogene)	DRSC07521	0.08	0.02			
CG12672	DRSC19482	0.58	0.37	0.33	0.45	
Tsp42Ec (Tetraspanin 42Ec)	DRSC06192	0.3	0.28			
Rpe (Ribulose-5-phosphate-3-epimerase)	DRSC06407	0.54	0.43			
Spg7 (Paraplegin)	DRSC18469	0.16	0.25			
ubl (ubiquitin like)	DRSC04998	-0.2	-0.06			
CG1850	DRSC06762	0.44	0.34			
Cpr31A (Cuticular protein 31A)	DRSC02779	-0.47	-0.27			
sphe (spheroide)	DRSC20203	0.46	0.13			
CG31418	DRSC21780	-0.67	-0.55			
CG6067	DRSC18399	0.16	0			
CG31140	DRSC13649	0.64	-0.39			
CG31140	DRSC14603	0.3	0.13			
CG31140	DRSC15904	0.28	0.31			
bowl	DRSC00805	0.05	0.19			
Pfdn4 (Prefoldin 4)	DRSC09761	0.28	0.33			
Spf45	DRSC03826	-0.06	0.26			
AlkB	DRSC19115	0.15	-0.48			
CG18764	DRSC15391	0.28	0.31			
lab (labial)	DRSC12627	0.29	0.46			
CG32686	DRSC17645	-0.53	0.23			
Os-C	DRSC16778	0.19	0.14			
CG3734	DRSC15509	0.24	0.34			
ebo (ellipsoid body open)	DRSC18787	0.34	0.08			
CG10345	DRSC14138	0.35	0.34			
Jwa	DRSC02048	0.45	0.34			
Hcf (Host cell factor)	DRSC17143	0.55	0.4			
MED19 (Mediator complex subunit 19)	DRSC10516	-5.08	-4.62			reduced secretion
CG9500	DRSC03237	0.28	0.16			
CG11409	DRSC18579	0.08	0.33			
CG9222	DRSC03158	0.05	0.38			
l(1)G0196 (lethal (1) G0196)	DRSC20591	0.31	0.37			
l(1)G0196 (lethal (1) G0196)	DRSC20629	0.47	0.3			
CG3748	DRSC02716	0.39	0.53			
Mp20 (Muscle protein 20)	DRSC07474	0.34	0.31			
DCTN2-p50 (Dynactin 2, p50 subunit)	DRSC07132	0.22	0.29			
CG15073	DRSC06506	0.32	0.24			
mRpS35 (mitochondrial ribosomal protein S35)	DRSC08551	-0.01	0.3			
SmydA-5 (SET and MYND domain containing, arthropod-specific, member 5)	DRSC04867	0.16	0.26			
Chmp1 (Charged multivesicular body protein 1)	DRSC10401	0.42	0.51			
ect (ectodermal)	DRSC10675	0.35	0.38	0.09	0.53	
ect (ectodermal)	DRSC11343	0.8	0.41			
ect (ectodermal)	DRSC22357	0.02	-0.26			
CG3527	DRSC18307	0.34	-0.49			
Nedd4	DRSC11234	0.27	0.26			
Nedd4	DRSC21548	-0.38	-0.35			
Nhe1 (Na[+]/H[+] hydrogen exchanger 1)	DRSC00762	0.4	0.37			
CG6656	DRSC16085	0.36	0.22			
bonsai	DRSC04453	0.08	-0.42			
